Values quoted from earlier work in US20250017905A1, “COMPOSITION FOR INHIBITING HISTAMINE-N-METHYLTRANSFERASE” (SUNTORY HOLDINGS LIMITED, priority 2021, published 2025).
For at least one compound, name, drawing or mass did not settle the structure.

Settings: stated as known; cited from earlier work

For `C[N+](C)(C)[C@@H](Cc1c[nH]c(=S)[nH]1)C(=O)[O-]` [L-ergothioneine], the “blood brain barrier (BBB) permeability” value is given as “good”.
